# In article doi:10.1101/341420:
# Amino acid sequences for entries named in this document (tags omitted).
# UniProt P54132: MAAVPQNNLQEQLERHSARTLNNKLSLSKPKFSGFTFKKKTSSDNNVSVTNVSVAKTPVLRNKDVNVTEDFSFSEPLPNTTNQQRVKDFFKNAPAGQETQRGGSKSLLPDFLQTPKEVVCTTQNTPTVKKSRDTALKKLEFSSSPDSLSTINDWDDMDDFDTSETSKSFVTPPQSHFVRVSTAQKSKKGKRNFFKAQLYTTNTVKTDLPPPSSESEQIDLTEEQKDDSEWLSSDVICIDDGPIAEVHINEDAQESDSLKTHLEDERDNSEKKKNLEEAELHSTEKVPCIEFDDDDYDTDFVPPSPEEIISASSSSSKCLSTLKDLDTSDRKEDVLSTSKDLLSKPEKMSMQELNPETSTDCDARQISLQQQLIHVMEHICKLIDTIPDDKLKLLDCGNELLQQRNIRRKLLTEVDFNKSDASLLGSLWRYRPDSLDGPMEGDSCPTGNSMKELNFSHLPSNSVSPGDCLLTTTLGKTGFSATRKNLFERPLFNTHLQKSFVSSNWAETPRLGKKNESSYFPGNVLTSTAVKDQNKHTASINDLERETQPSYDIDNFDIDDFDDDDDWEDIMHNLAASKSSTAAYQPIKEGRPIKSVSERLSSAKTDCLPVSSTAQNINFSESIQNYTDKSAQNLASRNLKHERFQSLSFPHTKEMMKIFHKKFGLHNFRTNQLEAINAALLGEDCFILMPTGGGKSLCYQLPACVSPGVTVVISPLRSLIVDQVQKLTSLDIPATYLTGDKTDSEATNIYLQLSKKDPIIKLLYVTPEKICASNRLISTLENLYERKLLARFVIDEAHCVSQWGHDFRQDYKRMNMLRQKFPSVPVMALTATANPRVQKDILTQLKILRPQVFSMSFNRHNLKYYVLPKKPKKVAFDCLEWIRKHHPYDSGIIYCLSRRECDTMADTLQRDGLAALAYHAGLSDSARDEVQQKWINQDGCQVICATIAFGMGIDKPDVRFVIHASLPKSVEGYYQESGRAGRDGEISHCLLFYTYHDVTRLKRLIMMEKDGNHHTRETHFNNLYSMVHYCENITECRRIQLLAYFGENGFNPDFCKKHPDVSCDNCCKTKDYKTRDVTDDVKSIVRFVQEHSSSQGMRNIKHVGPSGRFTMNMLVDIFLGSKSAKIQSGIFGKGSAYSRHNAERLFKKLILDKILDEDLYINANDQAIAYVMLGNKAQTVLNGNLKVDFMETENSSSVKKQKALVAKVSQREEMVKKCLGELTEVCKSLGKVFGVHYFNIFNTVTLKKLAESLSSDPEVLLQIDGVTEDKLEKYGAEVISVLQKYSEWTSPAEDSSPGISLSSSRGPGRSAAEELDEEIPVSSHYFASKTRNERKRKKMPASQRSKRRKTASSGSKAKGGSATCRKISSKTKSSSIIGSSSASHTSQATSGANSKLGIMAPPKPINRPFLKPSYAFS
# UniProt P15927: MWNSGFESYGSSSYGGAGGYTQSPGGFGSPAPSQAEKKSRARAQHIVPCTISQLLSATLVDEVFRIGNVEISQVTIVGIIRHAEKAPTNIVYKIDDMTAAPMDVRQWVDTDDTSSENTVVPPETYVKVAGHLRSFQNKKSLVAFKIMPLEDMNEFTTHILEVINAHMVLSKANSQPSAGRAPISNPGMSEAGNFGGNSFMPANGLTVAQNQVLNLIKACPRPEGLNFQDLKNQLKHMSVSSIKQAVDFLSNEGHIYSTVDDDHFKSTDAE
# These are yes or no findings as the source states them, for the method shown. In cells and extracts the contact can be indirect. Some results given as binding are weak or reduced against the parent protein; the word gives no strength.
# B1: RMI2 (protein, UniProt Q96E14 1-147)
# chain: MAAAADSFSGGPAGVRLPRSPPLKVLAEQLRRDAEGGPGAWRLSRAAAGRGPLDLAAVWMQGRVVMADRGEARLRDPSGDFSVRGLERVPRGRPCLVPGKYVMVMGVVQACSPEPCLQAVKMTDLSDNPIHESMWELEVEDLHRNIP
# B2: topoisomerase IIIa (TOP3A) (protein, UniProt Q13472 1-1001)
# chain: MIFPVARYALRWLRRPEDRAFSRAAMEMALRGVRKVLCVAEKNDAAKGIADLLSNGRMRRREGLSKFNKIYEFDYHLYGQNVTMVMTSVSGHLLAHDFQMQFRKWQSCNPLVLFEAEIEKYCPENFVDIKKTLERETRQCQALVIWTDCDREGENIGFEIIHVCKAVKPNLQVLRARFSEITPHAVRTACENLTEPDQRVSDAVDVRQELDLRIGAAFTRFQTLRLQRIFPEVLAEQLISYGSCQFPTLGFVVERFKAIQAFVPEIFHRIKVTHDHKDGIVEFNWKRHRLFNHTACLVLYQLCVEDPMATVVEVRSKPKSKWRPQALDTVELEKLASRKLRINAKETMRIAEKLYTQGYISYPRTETNIFPRDLNLTVLVEQQTPDPRWGAFAQSILERGGPTPRNGNKSDQAHPPIHPTKYTNNLQGDEQRLYEFIVRHFLACCSQDAQGQETTVEIDIAQERFVAHGLMILARNYLDVYPYDHWSDKILPVYEQGSHFQPSTVEMVDGETSPPKLLTEADLIALMEKHGIGTDATHAEHIETIKARMYVGLTPDKRFLPGHLGMGLVEGYDSMGYEMSKPDLRAELEADLKLICDGKKDKFVVLRQQVQKYKQVFIEAVAKAKKLDEALAQYFGNGTELAQQEDIYPAMPEPIRKCPQCNKDMVLKTKKNGGFYLSCMGFPECRSAVWLPDSVLEASRDSSVCPVCQPHPVYRLKLKFKRGSLPPTMPLEFVCCIGGCDDTLREILDLRFSGGPPRASQPSGRLQANQSLNRMDNSQHPQPADSRQTGSSKALAQTLPPPTAAGESNSVTCNCGQEAVLLTVRKEGPNRGRQFFKCNGGSCNFFLWADSPNPGAGGPPALAYRPLGASLGCPPGPGIHLGGFGNPGDGSGSGTSCLCSQPSVTRTVQKDGPNKGRQFHTCAKPREQQCGFFQWVDENTAPGTSGAPSWTGDRGRTLESEARSKRPRASSSDMGSTAKKPRKCSLCHQPGHTRPFCPQNR
# How the values were obtained:
# [1] = biological target: BLM (human (endogenous in HeLa and HCT116)) (UniProt P54132); experiment: co-IP
# [2] = biological target: RPA2 (human (endogenous in HeLa and HCT116)) (UniProt P15927); experiment: co-IP
Binder,binding [1],binding [2]
B1,binds,binds
B2,–,binds
